{"source": "the supplement of paper PMC8728848", "binders": {"B1": {"name": "4F2hc (Homo sapiens), P08195 (protein)", "chain": "WWHTGALYRIGDLQAFQGHGAGNLAGLKGRLDYLSSLKVKGLVLGPIHKNQKDDVAQTDLLQIDPNFGSKEDFDSLLQSAKKKSIRVILDLTPNYRGENSWFSTQVDTVATKVKDALEFWLQAGVDGFQVRDIENLKDASSFLAEWQNITKGFSEDRLLIAGTNSSDLQQILSLLESNKDLLLTSSYLSDSGSTGEHTKSLVTQYLNATGNRWCSWSLSQARLLTSFLPAQLLRLYQLMLFTLPGTPVFSYGDEIGLDAAALPGQPMEAPVMLWDESSFPDIPGAVSANMTVKGQSEDPGSLLSLFRRLSDQRSKERSLLHGDFHAFSAGPGLFSYIRHWDQNERFLVVLNFGDVGLSAGLQASDLPASASLPAKADLLLSTQPGREEGSPLELERLKLEPHEGLLLRFPYAA"}}, "assay_in_all_cases": "glycan array binding signal (z-score within array); higher = stronger binding", "conditions_in_all_cases": "glycan notation: IUPAC condensed, linker removed", "key": {"[1]": {"biological_target": "Man(a1-2)Man(a1-2)Man(a1-3)Man", "outline": "(§1)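 The Consortium for Functional Glycomics database supplied 3228 glycan arrays, of which those lacking an available protein sequence were dropped. The binding signal, a within-array Z-score, was averaged across arrays of the same protein sequence and across linkers. Negative scores can be read as non-binding.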"}, "[2]": {"biological_target": "Man(a1-2)Man(a1-2)Man(a1-6)[Man(a1-3)]Man", "outline": "as §1"}, "Man(a1-2)Man(a1-3)Man": {"biological_target": "Man(a1-2)Man(a1-3)Man", "outline": "as §1"}, "[3]": {"biological_target": "Man(a1-2)Man(a1-3)[Man(a1-2)Man(a1-6)]Man", "outline": "as §1"}, "[4]": {"biological_target": "Man(a1-2)Man(a1-3)[Man(a1-2)Man(a1-6)]Man(a1-6)[Man(a1-2)Man(a1-2)Man(a1-3)]Man", "outline": "as §1"}, "[5]": {"biological_target": "Man(a1-2)Man(a1-3)[Man(a1-2)Man(a1-6)]Man(a1-6)[Man(a1-2)Man(a1-2)Man(a1-3)]Man(b1-4)GlcNAc(b1-4)GlcNAc", "outline": "as §1"}, "[6]": {"biological_target": "Man(a1-2)Man(a1-3)[Man(a1-6)]Man(a1-6)[Man(a1-2)Man(a1-3)]Man(b1-4)GlcNAc(b1-4)GlcNAc", "outline": "as §1"}, "[7]": {"biological_target": "Man(a1-2)Man(a1-6)[Man(a1-3)]Man(a1-6)[Man(a1-2)Man(a1-2)Man(a1-3)]Man", "outline": "as §1"}, "[8]": {"biological_target": "Man(a1-2)Man(a1-6)[Man(a1-3)]Man(a1-6)[Man(a1-2)Man(a1-2)Man(a1-3)]Man(b1-4)GlcNAc(b1-4)GlcNAc", "outline": "as §1"}, "Man(a1-3)[Man(a1-6)]Man": {"biological_target": "Man(a1-3)[Man(a1-6)]Man", "outline": "as §1"}, "[9]": {"biological_target": "Man(a1-3)[Man(a1-6)]Man(a1-6)[Man(a1-2)Man(a1-3)]Man(b1-4)GlcNAc(b1-4)GlcNAc", "outline": "as §1"}, "[10]": {"biological_target": "Man(a1-3)[Man(a1-6)]Man(a1-6)[Man(a1-3)]Man", "outline": "as §1"}, "[11]": {"biological_target": "Man(a1-3)[Man(a1-6)]Man(a1-6)[Man(a1-3)]Man(b1-4)GlcNAc(b1-4)GlcNAc", "outline": "as §1"}, "[12]": {"biological_target": "Man(a1-3)[Man(a1-6)]Man(b1-4)GlcNAc(b1-4)GlcNAc", "outline": "as §1"}, "Man(a1-6)Man": {"biological_target": "Man(a1-6)Man", "outline": "as §1"}, "Man(b1-4)GlcNAc": {"biological_target": "Man(b1-4)GlcNAc", "outline": "as §1"}, "Neu5Ac(a2-3)Gal": {"biological_target": "Neu5Ac(a2-3)Gal", "outline": "as §1"}, "[13]": {"biological_target": "Neu5Ac(a2-3)Gal(b1-3)GalNAc", "outline": "as §1"}, "[14]": {"biological_target": "Neu5Ac(a2-3)Gal(b1-3)GalNAc(b1-3)Gal(a1-4)Gal(b1-4)Glc", "outline": "as §1"}, "[15]": {"biological_target": "Neu5Ac(a2-3)Gal(b1-3)GalNAc(b1-3)Gal(b1-4)GlcNAc", "outline": "as §1"}, "[16]": {"biological_target": "Neu5Ac(a2-3)Gal(b1-3)GalNAc(b1-4)[Neu5Ac(a2-3)]Gal(b1-4)Glc", "outline": "as §1"}, "[17]": {"biological_target": "Neu5Ac(a2-3)Gal(b1-3)GalNAc6S", "outline": "as §1"}, "[18]": {"biological_target": "Neu5Ac(a2-3)Gal(b1-3)GlcNAc", "outline": "as §1"}, "[19]": {"biological_target": "Neu5Ac(a2-3)Gal(b1-3)GlcNAc(b1-3)Gal(b1-3)GlcNAc", "outline": "as §1"}, "[20]": {"biological_target": "Neu5Ac(a2-3)Gal(b1-3)GlcNAc6S", "outline": "as §1"}, "[21]": {"biological_target": "Neu5Ac(a2-3)Gal(b1-3)[Fuc(a1-4)]GlcNAc", "outline": "as §1"}, "[22]": {"biological_target": "Neu5Ac(a2-3)Gal(b1-3)[Fuc(a1-4)]GlcNAc(b1-3)Gal(b1-3)[Fuc(a1-4)]GlcNAc", "outline": "as §1"}, "[23]": {"biological_target": "Neu5Ac(a2-3)Gal(b1-3)[Fuc(a1-4)]GlcNAc(b1-3)Gal(b1-4)[Fuc(a1-3)]GlcNAc", "outline": "as §1"}, "[24]": {"biological_target": "Neu5Ac(a2-3)Gal(b1-3)[Neu5Ac(a2-3)Gal(b1-4)]GlcNAc", "outline": "as §1"}, "[25]": {"biological_target": "Neu5Ac(a2-3)Gal(b1-3)[Neu5Ac(a2-6)]GalNAc", "outline": "as §1"}, "Neu5Ac(a2-3)Gal(b1-4)Glc": {"biological_target": "Neu5Ac(a2-3)Gal(b1-4)Glc", "outline": "as §1"}, "[26]": {"biological_target": "Neu5Ac(a2-3)Gal(b1-4)GlcNAc", "outline": "as §1"}, "[27]": {"biological_target": "Neu5Ac(a2-3)Gal(b1-4)GlcNAc(b1-2)Man(a1-3)[GlcNAc(b1-2)Man(b1-4)GlcNAc(b1-2)Man(a1-6)]Man(b1-4)GlcNAc(b1-4)GlcNAc", "outline": "as §1"}, "[28]": {"biological_target": "Neu5Ac(a2-3)Gal(b1-4)GlcNAc(b1-2)Man(a1-3)[Neu5Ac(a2-6)Gal(b1-4)GlcNAc(b1-2)Man(a1-6)]Man(b1-4)GlcNAc(b1-4)GlcNAc", "outline": "as §1"}, "[29]": {"biological_target": "Neu5Ac(a2-3)Gal(b1-4)GlcNAc(b1-3)Gal(b1-3)GlcNAc", "outline": "as §1"}, "[30]": {"biological_target": "Neu5Ac(a2-3)Gal(b1-4)GlcNAc(b1-3)Gal(b1-4)GlcNAc", "outline": "as §1"}, "[31]": {"biological_target": "Neu5Ac(a2-3)Gal(b1-4)GlcNAc(b1-3)Gal(b1-4)GlcNAc(b1-3)Gal(b1-4)GlcNAc", "outline": "as §1"}}, "note": "The other results are listed elsewhere or left out.", "data": [{"binder": "B1", "values": [{"measurement": "glycan array binding signal (z-score)", "setting": "[1]", "value": -0.86}, {"measurement": "glycan array binding signal (z-score)", "setting": "[2]", "value": 0.029}, {"measurement": "glycan array binding signal (z-score)", "setting": "Man(a1-2)Man(a1-3)Man", "value": -0.162}, {"measurement": "glycan array binding signal (z-score)", "setting": "[3]", "value": -0.794}, {"measurement": "glycan array binding signal (z-score)", "setting": "[4]", "value": 0.581}, {"measurement": "glycan array binding signal (z-score)", "setting": "[5]", "value": -0.185}, {"measurement": "glycan array binding signal (z-score)", "setting": "[6]", "value": -1.16}, {"measurement": "glycan array binding signal (z-score)", "setting": "[7]", "value": -0.537}, {"measurement": "glycan array binding signal (z-score)", "setting": "[8]", "value": -0.939}, {"measurement": "glycan array binding signal (z-score)", "setting": "Man(a1-3)[Man(a1-6)]Man", "value": -0.33}, {"measurement": "glycan array binding signal (z-score)", "setting": "[9]", "value": -0.16}, {"measurement": "glycan array binding signal (z-score)", "setting": "[10]", "value": -0.542}, {"measurement": "glycan array binding signal (z-score)", "setting": "[11]", "value": 0.061}, {"measurement": "glycan array binding signal (z-score)", "setting": "[12]", "value": 0.721}, {"measurement": "glycan array binding signal (z-score)", "setting": "Man(a1-6)Man", "value": -0.058}, {"measurement": "glycan array binding signal (z-score)", "setting": "Man(b1-4)GlcNAc", "value": -0.4}, {"measurement": "glycan array binding signal (z-score)", "setting": "Neu5Ac(a2-3)Gal", "value": -0.507}, {"measurement": "glycan array binding signal (z-score)", "setting": "[13]", "value": -1.1}, {"measurement": "glycan array binding signal (z-score)", "setting": "[14]", "value": -0.604}, {"measurement": "glycan array binding signal (z-score)", "setting": "[15]", "value": -0.583}, {"measurement": "glycan array binding signal (z-score)", "setting": "[16]", "value": -0.592}, {"measurement": "glycan array binding signal (z-score)", "setting": "[17]", "value": -0.717}, {"measurement": "glycan array binding signal (z-score)", "setting": "[18]", "value": -0.715}, {"measurement": "glycan array binding signal (z-score)", "setting": "[19]", "value": -0.667}, {"measurement": "glycan array binding signal (z-score)", "setting": "[20]", "value": 0.859}, {"measurement": "glycan array binding signal (z-score)", "setting": "[21]", "value": 1.08}, {"measurement": "glycan array binding signal (z-score)", "setting": "[22]", "value": 0.719}, {"measurement": "glycan array binding signal (z-score)", "setting": "[23]", "value": 1.55}, {"measurement": "glycan array binding signal (z-score)", "setting": "[24]", "value": -0.756}, {"measurement": "glycan array binding signal (z-score)", "setting": "[25]", "value": 0.401}, {"measurement": "glycan array binding signal (z-score)", "setting": "Neu5Ac(a2-3)Gal(b1-4)Glc", "value": 1.76}, {"measurement": "glycan array binding signal (z-score)", "setting": "[26]", "value": -0.087}, {"measurement": "glycan array binding signal (z-score)", "setting": "[27]", "value": -0.837}, {"measurement": "glycan array binding signal (z-score)", "setting": "[28]", "value": -0.878}, {"measurement": "glycan array binding signal (z-score)", "setting": "[29]", "value": -0.714}, {"measurement": "glycan array binding signal (z-score)", "setting": "[30]", "value": -0.564}, {"measurement": "glycan array binding signal (z-score)", "setting": "[31]", "value": 2.08}]}]}
